## Library screening results

From ChEMBL document CHEMBL3988442, “University of Dundee, Small-Polar-MMV Screening Library” (2021).

Mtb growth Cornell: 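Whole-cell assay for inhibitors of Mycobacterium tuberculosis growth, labelled Cornell in the record; the read-out is not stated. The concentration is filed as 10 mM, unlikely as a test dose, so the dose is not known. The record gives no direction; compounds strong in two other growth screens of this library score well above the rest, so higher reads as stronger inhibition. Size under these conditions: about 53,000 compounds, about 900 of them at 50% or above in at least one test.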
Mtb heat-shock: 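Assay on Mycobacterium tuberculosis, filed only as a heat shock assay from Cornell; the read-out is not stated. The concentration is filed as 10 mM, unlikely as a test dose, so the dose is not known. Direction is inferred from retests: higher values go with stronger inhibition. Of about 69,000 compounds tested this way, about 930 (1.4%) reached 50% or more in at least one test.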

Values are the deposited “Percent Effect”, in %. The record does not define 0% and 100%; most values in the screen are far below 50% and negative numbers occur (in some assays of this library far below -100). Compounds were drawn at random from those tested, without regard to their results. A dash means the value is not listed here; it may have been measured.

structure	Mtb growth Cornell	Mtb heat-shock
CCc1nnc2n1CCN(C(=O)c1cn(-c3ccccc3)nn1)C2	20.06%	-0.8377%
[H][C@]12CN(CCOC)C(=O)[C@@]1([H])CN(c1ncc(F)cn1)C2	1.211%	4.426%
Cl.[H][C@@]12CCN(Cc3ccsc3)C[C@]1([H])[C@@H](c1cccc(OC)c1)CN2C(C)=O	1.764%	-8.302%
Cc1nc(CN(C)C(=O)C2CC(=O)N(c3cccc(O)c3)C2)cs1 (configuration not stated)	30.2%	-8.008%
CCNC(=O)CN1CCN(c2cc(C)nc(-c3ccncc3)n2)CC1	-	0.4966%
[H][C@]12CCCCN1CCC[C@@]2(O)CNCC1(Cn2ccnc2)CC1	39.27%	-0.5478%
O=C(CNC1CCc2ncnn2C1)N(Cc1cccs1)C1CC1 (configuration not stated)	-3.043%	-8.119%
NCCCC(=O)NCC1(O)CCN(c2ccnc3cccnc23)C1 (configuration not stated)	7.073%	1.791%
[H][C@@]12CCN(C(=O)CN(C)C)C[C@]1(c1nc(C)no1)CCO2	-10.85%	-14.86%
CC(=O)N1CCC(c2cncc(N3CCOCC3)n2)CC1	26.4%	1.788%
COc1cccc2c1OCC(C(=O)NCCc1nnc(C)s1)C2 (configuration not stated)	-29.68%	-0.6788%
Cc1c[nH]nc1C1CN(c2ncccn2)CCO1 (configuration not stated)	-10.81%	1.911%
COCc1nc(CNC2CCC3(CCNCC3)CC2)no1	-	3.526%
CCc1ccc(S(=O)(=O)N2CCCC3(CCCN3S(C)(=O)=O)C2)cc1 (configuration not stated)	-	-22.66%
Cc1cnn(CC2CCCN2Cc2nc3ccccc3nc2C)c1 (configuration not stated)	-	7.151%
Cc1nc(CNCc2ccc(N3CCC(CO)CC3)nc2)cs1	17.28%	-18.52%
Cc1cc(C(=O)NCC(F)(F)F)c2c(C3CCCN3)noc2n1 (configuration not stated)	-	-33.64%
Cc1ccc(C(=O)N2CCN(C(=O)NC(C)Cn3ccnc3)CC2)o1 (configuration not stated)	-	4.957%
CN(C)C(C(=O)NCCSc1ncn[nH]1)c1cccc(F)c1 (configuration not stated)	-4.321%	-22.4%
CCN1CCN(C2CCN(Cc3nc(C)c(C)o3)CC2)C1=O	-	-4.673%
Cc1ccc2cc(C3(O)CCN(C)CC3)ccc2n1	-43.16%	10.58%
[H][C@@]12OCCN(C(=O)c3ccc(OC)c(F)c3)[C@@]1([H])CC[C@H]2OCC	38.89%	-18.45%
CCNc1cc(N2CCN(C(=O)c3ccc(OC)cc3)CC2)nc(C)n1	17.56%	-0.3198%
O=C(CCc1cc2n(n1)CCCN(C(=O)c1cccnc1)C2)NC1CC1	6.434%	0.2997%
CC(=O)N1CCN(C(=O)NC(C)C)CC2(CC(=O)N(C)C2)C1 (configuration not stated)	19.1%	9.489%
CO[C@@H]1CN(c2ccccc2)S(=O)(=O)[C@@]12CCN(C)C2	15.15%	14.92%
Cc1cc(S(=O)(=O)Nc2cccc(-n3cccc3)c2)sc1C(=O)O	36.65%	8.728%
CCSCCNc1nc2c(s1)c(C)nn2C	-	6.366%
O=C(CNc1ccc(F)cc1OCC(F)(F)F)NCC(F)(F)F	-3.067%	-10.19%
Cc1noc(C)c1C(C)C(=O)N1CCCN(Cc2cscn2)CC1 (configuration not stated)	-	5.505%
COCCc1noc(CN2CCCCC2Cn2cccn2)n1 (configuration not stated)	-30.87%	-2.246%
CCn1nc(C)c2nnn(CC(=O)Nc3ccccc3)c(=O)c21	-	-6.469%
CC(NC(=O)NCCCN1CCCCCC1)c1nncn1C (configuration not stated)	9.629%	12.17%
[H][C@@]12CCN(S(=O)(=O)c3cc(C)cc(C)c3)C[C@]1(C(=O)NC)CCO2	-11.71%	-11.57%
CCN(Cc1cnn(C)c1)C[C@H]1CC[C@@H](Cc2cccc(CN)c2)O1	0.8941%	-25.48%
O=C(O)C(F)(F)F.O=C(O)C(F)(F)F.c1csc(CN2CC3(CCN(Cc4ccsc4)C3)C2)n1	-26.75%	-55.67%
CCn1cc(CNC2CCN(c3c(F)cccc3F)C2)cn1 (configuration not stated)	24.14%	-18.99%
CC(C)c1ccc(O)c(C(=O)NCc2cc[nH]n2)c1	-8.58%	-35.04%
CN1CCN(C[C@@H]2CN(C(=O)CCc3cn[nH]c3)C[C@@H]2CO)CC1	-	20.77%
CCN1CCN(C[C@@H]2CN(Cc3cnc(C(C)C)nc3)C[C@@H]2CO)CC1	-	-17.93%
NC(=O)C1CCCN(c2ccc(CNC(=O)c3csnn3)cc2)C1 (configuration not stated)	-20.12%	-1.15%
CC(=O)N1CCC2(CC1)CN(C(=O)c1ccc3c(c1)OCCO3)C2	-	-5.195%
Cc1nc(CN2CCC(N(C)Cc3nnc(C4CC4)n3C)C2)oc1C (configuration not stated)	-27.66%	-2.878%
NC(=O)C1CN(Cc2c[nH]cn2)CCN(C2CCOCC2)C1 (configuration not stated)	1.415%	-18.46%
COc1c(C2CCCN2Cc2csc(C(C)C)n2)c(C)nn1C (configuration not stated)	-24.35%	7.64%
Cc1noc(C(C)C)c1C(=O)N1CCOCC1CC(=O)c1ccco1 (configuration not stated)	1.389%	-7.593%
CN(C)S(=O)(=O)N1CCC[C@]2(C[C@@H](Oc3ccccn3)CO2)C1.O=C(O)C(F)(F)F	21.85%	1.379%
CN1CC=C(CCN(C)C(=O)CCc2ccccc2)CC1	-66.54%	13.88%
COc1ccc(N2CCN(Cc3nc(CSC)no3)C(C)C2=O)cc1 (configuration not stated)	-0.7712%	-13.41%